According to paper doi:10.1101/2021.01.28.428652:
These are yes or no findings as the source states them, for the method shown. In cells and extracts the contact can be indirect. Some binding calls cover weakened binding; strength is not graded here.

Chains of the proteins cited; added tags and fusions are not shown. Lines headed by an entry give the natural chain unless they say otherwise; changes in a name come on top. Residues count along the entry.
UniProt Q8VZG8, residues 44-1045: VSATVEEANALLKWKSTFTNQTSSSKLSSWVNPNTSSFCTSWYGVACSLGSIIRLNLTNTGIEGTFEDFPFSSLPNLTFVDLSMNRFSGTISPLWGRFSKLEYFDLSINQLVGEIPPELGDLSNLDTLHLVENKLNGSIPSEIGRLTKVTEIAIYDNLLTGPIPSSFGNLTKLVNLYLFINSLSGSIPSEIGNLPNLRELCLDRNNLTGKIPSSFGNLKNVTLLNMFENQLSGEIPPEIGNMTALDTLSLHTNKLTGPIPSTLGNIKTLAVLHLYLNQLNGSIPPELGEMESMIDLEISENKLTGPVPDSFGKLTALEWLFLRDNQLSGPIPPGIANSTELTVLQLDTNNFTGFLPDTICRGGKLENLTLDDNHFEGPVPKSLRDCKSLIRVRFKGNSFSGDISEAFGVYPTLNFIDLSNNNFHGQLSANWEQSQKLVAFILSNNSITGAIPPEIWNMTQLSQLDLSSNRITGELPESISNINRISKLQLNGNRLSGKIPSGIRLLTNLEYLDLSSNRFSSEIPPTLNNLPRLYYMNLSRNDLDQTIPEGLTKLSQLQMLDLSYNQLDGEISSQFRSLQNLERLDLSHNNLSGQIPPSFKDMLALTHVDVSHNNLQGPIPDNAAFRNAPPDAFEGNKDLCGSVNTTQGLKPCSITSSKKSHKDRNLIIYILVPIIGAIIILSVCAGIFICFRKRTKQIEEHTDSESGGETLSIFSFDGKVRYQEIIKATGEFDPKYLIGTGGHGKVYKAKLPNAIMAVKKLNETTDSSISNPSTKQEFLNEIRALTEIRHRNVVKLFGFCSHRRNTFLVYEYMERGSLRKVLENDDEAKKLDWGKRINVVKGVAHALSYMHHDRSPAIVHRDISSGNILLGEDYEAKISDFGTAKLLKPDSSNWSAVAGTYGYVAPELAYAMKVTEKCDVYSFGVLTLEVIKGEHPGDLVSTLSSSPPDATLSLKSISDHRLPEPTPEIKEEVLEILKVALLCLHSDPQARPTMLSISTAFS

Molecular target: MIK2-GFP (pMIK2::MIK2-GFP in the mik2-1 mutant) (Arabidopsis thaliana) (UniProt Q8VZG8)
Test: co-IP

B1: BAK1/SERK3, endogenous (BRI1-ASSOCIATED RECEPTOR KINASE 1 / SOMATIC EMBRYOGENESIS RECEPTOR KINASE 3) (receptor, UniProt Q94F62 26-615)
chain: NAEGDALSALKNSLADPNKVLQSWDATLVTPCTWFHVTCNSDNSVTRVDLGNANLSGQLVMQLGQLPNLQYLELYSNNITGTIPEQLGNLTELVSLDLYLNNLSGPIPSTLGRLKKLRFLRLNNNSLSGEIPRSLTAVLTLQVLDLSNNPLTGDIPVNGSFSLFTPISFANTKLTPLPASPPPPISPTPPSPAGSNRITGAIAGGVAAGAALLFAVPAIALAWWRRKKPQDHFFDVPAEEDPEVHLGQLKRFSLRELQVASDNFSNKNILGRGGFGKVYKGRLADGTLVAVKRLKEERTQGGELQFQTEVEMISMAVHRNLLRLRGFCMTPTERLLVYPYMANGSVASCLRERPESQPPLDWPKRQRIALGSARGLAYLHDHCDPKIIHRDVKAANILLDEEFEAVVGDFGLAKLMDYKDTHVTTAVRGTIGHIAPEYLSTGKSSEKTDVFGYGVMLLELITGQRAFDLARLANDDDVMLLDWVKGLLKEKKLEALVDVDLQGNYKDEEVEQLIQVALLCTQSSPMERPKMSEVVRMLEGDGLAERWEEWQKEEMFRQDFNYPTHHPAVSGWIIGDSTSQIENEYPSGPR
**Q.** B1 was tested. Which binding did it give?
**A.** binds weakly
